Assay results published in patent US11186575B2, “Treatment of helicobacter pylori infections” (Albert Einstein College of Medicine, Inc., priority 2012, dated 2021).
At least one structure is not confirmed: it was looked up by name or label, or the drawing left a doubt.

Tested on: H. pylori
Experiment: Zone of inhibition (disc) on H. pylori
Format: cell-based, Helicobacter pylori
Settings: equivalent amounts (10 ng or 20 ng per disc)
Procedure: FIG. 3A-3B: The effects of BuT-DADMe-ImmA (30) on H. pylori growth. A. The effects of increasing the concentration of BuT-DADMe-ImmA (ng/ml) on growth on blood agar. B. The inhibitory effects of BuT-DADMe-ImmA are compared with amoxicillin, metronidazole and tetracyclin in zone of inhibition studies. Drug concentrations were: 0 (top disc), 10 ng (middle disc) or 20 ng (bottom disc). Each specified antibiotic was applied to the disc in the same manner.
H. pylori were grown for 72 hours under microaerophilic condition (5% O2, 10% CO2 and 85% N2) at 37° C. on tryptic soy agar with 5% horse blood. To determine the MIC values, the test substance was added to the gel solution right before pouring. To compare the zones of inhibition, specific antibiotics were added to the center of disc after spreading H. pylori, and then H. pylori was allowed to grow for 72 hours under microaerophilic condition at 37° C.
Commonly used antibiotics in H. pylori infections include amoxicillin, metronidazole and tetracycline. The anti-H. pylori effects of BuT-DADMe-ImmA (30) were compared to those antibiotics in common use. […] Thus, BuT-DADMe-ImmA is more efficient at inhibition of H. pylori growth than commonly used antibiotics.

Q: With CN(C)[C@@H]1C(O)=C(C(N)=O)C(=O)[C@@]2(O)C(O)=C3C(=O)c4c(O)cccc4[C@@](C)(O)[C@H]3C[C@@H]12 [tetracycline, reference compound] as the compound, how does the “zones of inhibition, comparison of antibiotics” value read?
A: The value was “no growth inhibition”.
